These are literature values, as cited in patent publication US12534530B2, “Combination of a PD-1 antagonist and a VEGFR inhibitor for treating cancer” (PFIZER INC., priority 2014, dated 2026).

In one series the test system is endothelial cell. To be noted: Hu-Lowe et al. 2008; Solowiej et al. 2009.
Series [1] relates to vascular endothelial growth factor (VEGF) receptors 1, 2 and 3. To be noted: qualitative statement.

Turning to `CNC(=O)c1ccccc1Sc1ccc2c(/C=C/c3ccccn3)n[nH]c2c1` [Axitinib, N-methyl-2-[3-((E)-2-pyridin-2-yl-vinyl)-1H-indazol-6-ylsulfanyl]-benzamide], the “inhibition of VEGF-mediated endothelial cell proliferation and survival” value in the series on endothelial cell is “potently inhibit”. In series [1], the “inhibitor of VEGF receptors 1, 2 and 3” value was “potent and selective inhibitor”.
